Laboratory results from the M2OR odorant receptor database.
Residue numbers refer to the chain shown, from its start. Only a part is listed here, and it is no random draw. Calls are pooled over several reports, among them a noisy single-well screen. The list shows a part of the results. Some of the results follow.

Chains of the proteins cited; added tags and fusions are not shown. Chains listed by the source or under a name are the forms on record and can include a tag or linker.
OR5L1, as listed by the source: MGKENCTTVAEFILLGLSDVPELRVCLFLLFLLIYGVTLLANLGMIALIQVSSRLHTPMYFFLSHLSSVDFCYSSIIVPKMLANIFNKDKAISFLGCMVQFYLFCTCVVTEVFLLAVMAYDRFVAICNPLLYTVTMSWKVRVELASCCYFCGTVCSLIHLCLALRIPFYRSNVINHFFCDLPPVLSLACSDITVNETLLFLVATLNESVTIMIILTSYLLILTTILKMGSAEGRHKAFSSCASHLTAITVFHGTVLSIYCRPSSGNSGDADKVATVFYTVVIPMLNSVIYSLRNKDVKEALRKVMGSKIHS

Legend:
Details in all cases: stereoisomer not certain
[1] = test system: T1, OR5H1
T1 sequence (whole entry): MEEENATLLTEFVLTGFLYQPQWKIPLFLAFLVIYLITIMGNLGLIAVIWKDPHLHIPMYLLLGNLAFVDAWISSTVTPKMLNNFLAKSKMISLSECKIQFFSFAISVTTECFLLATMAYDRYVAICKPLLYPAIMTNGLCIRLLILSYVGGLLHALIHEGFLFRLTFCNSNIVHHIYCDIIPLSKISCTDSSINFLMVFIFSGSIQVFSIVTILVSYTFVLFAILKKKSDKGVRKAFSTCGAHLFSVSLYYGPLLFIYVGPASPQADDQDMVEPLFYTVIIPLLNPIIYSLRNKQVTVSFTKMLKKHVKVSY
Method in brief: (§1)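 Each entry records the cell line, G-protein, co-transfected protein and tags used. Methods varied with the source, often transient luciferase assays in mammalian cell lines. A receptor–molecule pair is called responsive (active) if the original authors judged its signal statistically different from baseline and non-responsive (inactive) otherwise.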

[2] = test system: T2, OR5H2
T2 sequence (whole entry): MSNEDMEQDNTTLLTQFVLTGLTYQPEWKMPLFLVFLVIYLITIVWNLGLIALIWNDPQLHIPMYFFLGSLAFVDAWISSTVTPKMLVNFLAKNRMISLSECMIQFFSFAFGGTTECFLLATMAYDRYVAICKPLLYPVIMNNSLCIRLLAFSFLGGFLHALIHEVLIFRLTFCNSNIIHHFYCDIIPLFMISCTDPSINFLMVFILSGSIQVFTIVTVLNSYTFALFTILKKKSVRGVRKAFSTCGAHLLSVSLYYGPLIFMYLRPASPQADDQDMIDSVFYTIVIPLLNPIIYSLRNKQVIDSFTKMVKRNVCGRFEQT
Method in brief: as §1

[3] = test system: T3, OR5H2; remark: listed apart in the source
T3 sequence (whole entry): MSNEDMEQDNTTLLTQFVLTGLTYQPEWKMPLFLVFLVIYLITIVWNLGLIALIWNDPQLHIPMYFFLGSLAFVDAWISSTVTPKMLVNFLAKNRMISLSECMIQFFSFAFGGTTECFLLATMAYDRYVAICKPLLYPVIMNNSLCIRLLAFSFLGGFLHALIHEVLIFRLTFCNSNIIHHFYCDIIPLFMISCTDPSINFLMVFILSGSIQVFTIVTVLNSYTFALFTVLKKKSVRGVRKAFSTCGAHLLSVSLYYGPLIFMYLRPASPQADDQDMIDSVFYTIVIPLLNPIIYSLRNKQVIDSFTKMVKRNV
Method in brief: as §1

[4] = test system: T4, OR5H6
T4 sequence (whole entry): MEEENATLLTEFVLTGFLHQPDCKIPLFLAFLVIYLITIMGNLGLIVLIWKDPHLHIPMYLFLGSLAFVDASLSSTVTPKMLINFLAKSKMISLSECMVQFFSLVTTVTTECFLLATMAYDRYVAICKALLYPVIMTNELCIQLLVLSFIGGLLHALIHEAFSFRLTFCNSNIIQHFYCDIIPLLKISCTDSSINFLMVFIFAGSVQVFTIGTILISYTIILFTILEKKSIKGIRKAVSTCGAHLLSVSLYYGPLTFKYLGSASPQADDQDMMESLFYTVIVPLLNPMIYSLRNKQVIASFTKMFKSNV
Method in brief: as §1

[5] = test system: T5, OR5H6; remark: listed apart in the source
T5 sequence (whole entry): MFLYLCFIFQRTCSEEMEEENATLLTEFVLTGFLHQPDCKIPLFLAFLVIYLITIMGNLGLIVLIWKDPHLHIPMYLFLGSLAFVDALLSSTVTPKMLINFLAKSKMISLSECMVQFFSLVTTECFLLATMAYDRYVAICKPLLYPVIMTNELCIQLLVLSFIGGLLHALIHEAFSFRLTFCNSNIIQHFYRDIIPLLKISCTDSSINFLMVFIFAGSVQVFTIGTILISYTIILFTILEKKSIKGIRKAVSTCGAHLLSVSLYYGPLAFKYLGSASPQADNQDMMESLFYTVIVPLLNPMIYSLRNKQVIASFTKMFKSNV
Method in brief: as §1

[6] = molecular target: T6, OR5I1 (Homo sapiens) (UniProt Q13606)
T6 sequence (whole entry): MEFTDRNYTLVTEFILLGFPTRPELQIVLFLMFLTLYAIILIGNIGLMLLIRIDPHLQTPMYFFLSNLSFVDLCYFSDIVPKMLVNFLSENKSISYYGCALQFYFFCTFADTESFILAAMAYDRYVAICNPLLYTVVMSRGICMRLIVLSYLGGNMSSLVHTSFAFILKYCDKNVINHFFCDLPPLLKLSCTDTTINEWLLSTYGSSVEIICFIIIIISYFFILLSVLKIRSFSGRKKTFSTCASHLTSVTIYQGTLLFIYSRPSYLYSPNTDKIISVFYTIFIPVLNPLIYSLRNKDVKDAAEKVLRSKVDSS
Method in brief: as §1

[7] = molecular target: T7, OR5J2 (Homo sapiens) (UniProt Q8NH18)
T7 sequence (whole entry): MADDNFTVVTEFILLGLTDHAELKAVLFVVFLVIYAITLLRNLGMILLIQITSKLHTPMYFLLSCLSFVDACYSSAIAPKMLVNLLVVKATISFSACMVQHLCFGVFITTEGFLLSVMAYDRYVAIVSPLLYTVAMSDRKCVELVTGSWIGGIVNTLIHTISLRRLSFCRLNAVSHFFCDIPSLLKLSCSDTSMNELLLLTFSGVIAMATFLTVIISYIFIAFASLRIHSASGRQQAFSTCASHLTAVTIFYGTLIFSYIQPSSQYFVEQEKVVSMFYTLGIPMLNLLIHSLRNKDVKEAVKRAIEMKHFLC
Method in brief: as §1

[8] = molecular target: T8, OR5K1 (Homo sapiens) (UniProt Q8NHB7)
T8 sequence (whole entry): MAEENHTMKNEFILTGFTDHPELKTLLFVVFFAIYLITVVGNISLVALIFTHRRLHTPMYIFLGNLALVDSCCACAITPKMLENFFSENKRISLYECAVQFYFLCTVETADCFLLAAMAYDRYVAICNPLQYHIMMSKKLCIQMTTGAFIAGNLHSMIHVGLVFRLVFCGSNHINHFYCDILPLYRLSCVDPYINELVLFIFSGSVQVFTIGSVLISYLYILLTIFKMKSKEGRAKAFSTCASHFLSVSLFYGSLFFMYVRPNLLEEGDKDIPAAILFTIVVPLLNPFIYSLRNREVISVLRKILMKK
Method in brief: as §1

[9] = molecular target: T9, OR5K2 (Homo sapiens) (UniProt Q8NHB8)
T9 sequence (whole entry): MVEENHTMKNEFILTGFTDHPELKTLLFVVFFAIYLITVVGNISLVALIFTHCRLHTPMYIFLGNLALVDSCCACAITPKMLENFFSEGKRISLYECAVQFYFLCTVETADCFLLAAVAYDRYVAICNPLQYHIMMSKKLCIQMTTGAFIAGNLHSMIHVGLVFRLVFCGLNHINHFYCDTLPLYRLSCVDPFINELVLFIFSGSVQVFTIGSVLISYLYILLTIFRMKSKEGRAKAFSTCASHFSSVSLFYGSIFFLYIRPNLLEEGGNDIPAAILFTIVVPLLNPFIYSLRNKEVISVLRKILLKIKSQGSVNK
Method in brief: as §1

[10] = test system: T10, OR5K3
T10 sequence (whole entry): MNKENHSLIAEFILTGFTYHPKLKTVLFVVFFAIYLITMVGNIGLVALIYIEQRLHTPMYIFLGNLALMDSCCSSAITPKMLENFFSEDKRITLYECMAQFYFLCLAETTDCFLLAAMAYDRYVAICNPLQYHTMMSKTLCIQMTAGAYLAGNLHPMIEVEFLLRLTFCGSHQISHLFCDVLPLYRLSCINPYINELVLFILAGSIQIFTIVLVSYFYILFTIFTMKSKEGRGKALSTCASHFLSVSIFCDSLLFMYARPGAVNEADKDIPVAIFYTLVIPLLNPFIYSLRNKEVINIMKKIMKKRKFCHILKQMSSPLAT
Method in brief: as §1

[11] = test system: T11, OR5K4
T11 sequence (whole entry): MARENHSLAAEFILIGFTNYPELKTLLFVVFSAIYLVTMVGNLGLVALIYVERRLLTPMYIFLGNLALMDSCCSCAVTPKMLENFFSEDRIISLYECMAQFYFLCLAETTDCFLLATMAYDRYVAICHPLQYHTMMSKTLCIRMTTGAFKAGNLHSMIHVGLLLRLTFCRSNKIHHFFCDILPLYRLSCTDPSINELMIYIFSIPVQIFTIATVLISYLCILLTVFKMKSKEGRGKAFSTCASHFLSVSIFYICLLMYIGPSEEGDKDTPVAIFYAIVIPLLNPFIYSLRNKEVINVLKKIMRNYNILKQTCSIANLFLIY
Method in brief: as §1

[12] = molecular target: T12, OR5L1 (Homo sapiens) (UniProt Q8NGL2)
T12 sequence (whole entry): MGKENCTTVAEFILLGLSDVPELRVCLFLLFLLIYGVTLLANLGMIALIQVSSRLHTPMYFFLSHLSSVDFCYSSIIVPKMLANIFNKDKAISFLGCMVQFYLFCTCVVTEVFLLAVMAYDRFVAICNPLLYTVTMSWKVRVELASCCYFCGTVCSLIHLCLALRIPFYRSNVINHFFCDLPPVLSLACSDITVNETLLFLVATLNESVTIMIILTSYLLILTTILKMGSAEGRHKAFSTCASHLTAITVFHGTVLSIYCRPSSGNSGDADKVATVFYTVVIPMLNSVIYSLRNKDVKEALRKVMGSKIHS
Method in brief: as §1

[13] = test system: T13, OR5L1
T13 sequence (whole entry): T12 sequence (whole entry) with T240S
Method in brief: as §1

Measured: odorant receptor agonist call

COc1ccccc1O
active: [6]
inactive: all other assays above

CCCCO
not listed: [8]
inactive: all other assays above

COc1cc(C=O)ccc1O
inactive: all assays above

CCCCCCCC=CC=O
active: [4] | [13]
not listed: [8]
inactive: all other assays above

CCCCCCCCC=O
inactive: [8]

COC(=O)c1ccccc1
active: [2] | [5]
not listed: [7] | [11] | [13]
inactive: all other assays above

CCCCCCOC(=O)CCC
inactive: all assays above

C=C(C)C1CC=C(C)C(=O)C1 (centres undefined)
inactive: [8]

O=C1CCCCCCCCCCCCCCO1
inactive: all assays above

CC(C)(O)CCCC1=CCC(C=O)CC1 (centres undefined)
inactive: [7] | [11] | [13]

C=CCc1ccc(O)c(OC)c1
inactive: [8]

CC12CCC(CC1)C(C)(C)O2
inactive: all assays above

CC(=O)c1ccccc1
not listed: [7] | [11] | [13]
inactive: all other assays above

C=CCSCC=C
inactive: all assays above

O=C1CCCCCCCCCCCC(=O)OCCO1
inactive: all assays above

CC(C)(C)c1ccc(CCC=O)cc1
inactive: all assays above
